Measured values from article PMC2855077.
These are yes or no findings as the source states them, for the method shown. In cells and extracts the contact can be indirect. Some entries that bind do so weakly or less than the wild type. For part of these data: Tags and fused reporters may be left off the sequences shown.

Sequences of proteins named here, by UniProt entry; tags and fusion partners are left off.
UniProt P39948: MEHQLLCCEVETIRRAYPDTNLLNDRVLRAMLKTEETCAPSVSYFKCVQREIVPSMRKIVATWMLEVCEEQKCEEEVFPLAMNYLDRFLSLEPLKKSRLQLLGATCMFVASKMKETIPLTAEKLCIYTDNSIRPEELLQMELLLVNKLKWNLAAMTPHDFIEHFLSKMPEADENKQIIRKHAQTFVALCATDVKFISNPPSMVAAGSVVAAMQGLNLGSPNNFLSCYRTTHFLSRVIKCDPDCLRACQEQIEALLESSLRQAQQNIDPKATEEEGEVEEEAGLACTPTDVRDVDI
UniProt P30277: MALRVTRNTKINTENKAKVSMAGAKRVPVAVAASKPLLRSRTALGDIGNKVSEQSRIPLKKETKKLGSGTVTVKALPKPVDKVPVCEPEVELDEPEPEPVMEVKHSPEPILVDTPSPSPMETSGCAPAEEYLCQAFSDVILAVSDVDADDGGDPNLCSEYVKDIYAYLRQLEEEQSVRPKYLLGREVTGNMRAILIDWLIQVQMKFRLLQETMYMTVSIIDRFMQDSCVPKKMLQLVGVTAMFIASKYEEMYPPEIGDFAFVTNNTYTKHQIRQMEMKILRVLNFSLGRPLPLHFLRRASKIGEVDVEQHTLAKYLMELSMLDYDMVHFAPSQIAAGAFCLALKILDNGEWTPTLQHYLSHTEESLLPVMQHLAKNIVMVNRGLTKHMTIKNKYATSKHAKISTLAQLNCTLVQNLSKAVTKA
UniProt Q04827: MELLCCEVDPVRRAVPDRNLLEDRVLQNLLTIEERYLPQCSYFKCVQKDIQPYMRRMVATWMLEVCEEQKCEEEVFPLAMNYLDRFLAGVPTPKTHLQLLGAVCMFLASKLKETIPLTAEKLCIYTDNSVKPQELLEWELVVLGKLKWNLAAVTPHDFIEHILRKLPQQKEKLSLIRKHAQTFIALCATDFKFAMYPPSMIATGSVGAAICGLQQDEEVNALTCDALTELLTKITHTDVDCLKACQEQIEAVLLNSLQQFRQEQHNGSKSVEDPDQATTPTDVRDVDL
UniProt P62961: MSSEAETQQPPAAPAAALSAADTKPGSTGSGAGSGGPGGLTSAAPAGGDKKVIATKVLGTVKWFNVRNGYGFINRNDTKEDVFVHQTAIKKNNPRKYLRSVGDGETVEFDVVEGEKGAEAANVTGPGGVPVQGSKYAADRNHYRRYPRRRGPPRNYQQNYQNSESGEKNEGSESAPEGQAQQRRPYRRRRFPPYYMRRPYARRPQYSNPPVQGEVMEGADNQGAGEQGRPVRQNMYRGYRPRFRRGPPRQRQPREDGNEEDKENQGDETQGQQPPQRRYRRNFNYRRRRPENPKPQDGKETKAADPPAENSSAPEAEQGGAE

How the values were obtained:
[1] = biological target: cyclin D1 (rat (endogenous in rat hepatoma H-411E)) (UniProt P39948); assay: co-IP; nuclear and cytoplasmic extracts of nocodazole-treated (G2 arrested) rat hepatoma cells precipitated with anti-cyclin D1 or anti-YB-1 antibody, Protein A Sepharose (Supplementary Figure S3)
[2] = biological target: cyclin B1 (rat (endogenous in rat hepatoma H-411E)) (UniProt P30277); assay: co-IP; whole cell extracts of rat hepatoma cells (asynchronous and nocodazole-treated) precipitated with antibodies to cyclins A, B1, D1 and D2 overnight at 4°C, Protein A Sepharose; blot with YB-1 antibody
[3] = biological target: cyclin D1 (rat (endogenous in rat hepatoma H-411E)) (UniProt P39948); assay: as above
[4] = biological target: cyclin D2 (rat (endogenous in rat hepatoma H-411E)) (UniProt Q04827); assay: as above
[5] = biological target: T1, APYB26GFP (UniProt Q06066); assay: co-IP; whole cell extracts of asynchronous rat hepatoma cells incubated with the fusion proteins, precipitated with GFP antibody, Protein A Sepharose; blot for cyclin D1
T1 sequence: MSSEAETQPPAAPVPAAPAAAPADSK

[6] = biological target: APYB77GFP (UniProt Q06066); assay: as above
[7] = biological target: Y-box binding protein YB-1 (rat (endogenous in rat hepatoma H-411E)) (UniProt P62961); assay: co-IP; nuclear and cytoplasmic extracts of nocodazole-treated (G2 arrested) rat hepatoma cells precipitated with anti-cyclin D1 or anti-YB-1 antibody, Protein A Sepharose (Supplementary Figure S3)
[8] = biological target: T1, APYB26GFP; assay: co-IP; whole cell extracts of nocodazole-blocked (G2/M) rat hepatoma cells incubated with the fusion proteins for 3 and 18 hr, precipitated with GFP antibody, Protein A Sepharose; blot for cyclin D1
[9] = biological target: APYB77GFP (UniProt Q06066); assay: as above

| binding [1] | binding [2] | binding [3] | binding [4] | binding [7] | binding [8] | binding [9] | Substance | binding [5] | binding [6] |
| --- | --- | --- | --- | --- | --- | --- | --- | --- | --- |
| binds | binds weakly | binds | binds weakly |  |  |  | Y-box binding protein YB-1 (from UniProt P62961 1-322) |  |  |
|  |  |  |  | binds | binds | binds | cyclin D1 (from UniProt P39948 1-295) | no binding (condition: asynchronous cells (no nocodazole)) | no binding (condition: asynchronous cells (no nocodazole)) |
